How the values were obtained:
[1] = Plasma levels after transdermal administration to hairless mice; assay type: in vivo
Method: Tested compounds (20% solution or suspension in 1 mL isopropanol) are administered transdermally to the skin of intact hairless mice. The plasma levels of the parent compounds are determined by HPLC.

[2] = test system: human skin tissue; conditions: 20 %, pH 7.4
[3] = in vivo; conditions: rat
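Wherever LD50 is given: acute toxicity in rats expressed as LD50, determined for both prodrugs and their parent compounds.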

COc1ccc2cc([C@H](C)C(=O)O)ccc2c1 [Naproxen, naproxen, reference compound]
t, time to peak plasma level after parent compound ([1]; parent compound administered (time when taken orally)): 2 to 4 h
Peak plasma concentration after parent compound ([1]; parent compound administered, hairless mice): 10 mg/L
In vitro penetration rate (apparent flux), parent compounds [2]: 30 μg/cm^2/h
LD50 [3]: 1200 mg/kg

— US20210353579A1, “HIGH PENETRATION COMPOSITIONS AND USES THEREOF” (Techfields Pharma Co., Ltd., priority 2006, published 2021)
